This is one part of the list.
Key:
Assay in all cases: log2 fold change, soluble protein after heating vs DMSO (PISA); higher = thermal stabilisation; K562 lysate, 10 uM; active = over 0.2 and 3.5 SD of the protein, either way, in both replicates (recomputed)
erlotinib = compound: C#Cc1cccc(Nc2ncnc3cc(OCCOC)c(OCCOC)cc23)c1 [erlotinib]
Procedure, shortened: (§1)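 Soluble protein was defined as the supernatant remaining after 21,000xg for 90 min, following pooling of heated aliquots and adjustment to 0.5% NP-40 at 4°C. Before that, crude K562 extract at 1 mg/mL protein in PBS pH 7.4 with 1 mM MgCl2 was treated with 10 μM compound for 30 min and heated for 3 min across 48°C-58°C. Quantification used TMTpro 16plex LC-MS/MS with channel sums equalised, and values are log-two fold changes in thermal stability relative to solvent controls from duplicates.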

Chains of the proteins cited; added tags and fusions are not shown. Lines headed by an entry give the natural chain unless they say otherwise; changes in a name come on top.
UniProt P09382, whole entry, looked up: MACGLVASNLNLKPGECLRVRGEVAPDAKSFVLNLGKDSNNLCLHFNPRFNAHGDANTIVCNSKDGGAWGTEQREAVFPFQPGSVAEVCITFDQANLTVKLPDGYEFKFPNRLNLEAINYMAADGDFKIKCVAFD
UniProt Q08380: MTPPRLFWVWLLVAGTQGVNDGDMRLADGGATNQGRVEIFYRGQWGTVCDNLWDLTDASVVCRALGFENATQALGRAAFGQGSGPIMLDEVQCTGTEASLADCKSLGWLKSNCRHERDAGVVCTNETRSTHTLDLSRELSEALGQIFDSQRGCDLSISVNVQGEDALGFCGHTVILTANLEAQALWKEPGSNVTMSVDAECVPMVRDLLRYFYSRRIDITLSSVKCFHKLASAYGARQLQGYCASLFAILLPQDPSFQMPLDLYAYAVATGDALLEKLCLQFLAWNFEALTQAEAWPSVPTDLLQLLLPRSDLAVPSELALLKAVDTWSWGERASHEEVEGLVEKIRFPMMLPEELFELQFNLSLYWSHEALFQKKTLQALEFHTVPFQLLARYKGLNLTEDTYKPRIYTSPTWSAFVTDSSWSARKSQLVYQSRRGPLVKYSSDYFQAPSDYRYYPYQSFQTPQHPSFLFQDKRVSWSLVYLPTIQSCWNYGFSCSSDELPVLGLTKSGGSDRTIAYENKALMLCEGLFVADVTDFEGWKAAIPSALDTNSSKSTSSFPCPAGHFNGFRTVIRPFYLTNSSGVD
UniProt Q32MZ4: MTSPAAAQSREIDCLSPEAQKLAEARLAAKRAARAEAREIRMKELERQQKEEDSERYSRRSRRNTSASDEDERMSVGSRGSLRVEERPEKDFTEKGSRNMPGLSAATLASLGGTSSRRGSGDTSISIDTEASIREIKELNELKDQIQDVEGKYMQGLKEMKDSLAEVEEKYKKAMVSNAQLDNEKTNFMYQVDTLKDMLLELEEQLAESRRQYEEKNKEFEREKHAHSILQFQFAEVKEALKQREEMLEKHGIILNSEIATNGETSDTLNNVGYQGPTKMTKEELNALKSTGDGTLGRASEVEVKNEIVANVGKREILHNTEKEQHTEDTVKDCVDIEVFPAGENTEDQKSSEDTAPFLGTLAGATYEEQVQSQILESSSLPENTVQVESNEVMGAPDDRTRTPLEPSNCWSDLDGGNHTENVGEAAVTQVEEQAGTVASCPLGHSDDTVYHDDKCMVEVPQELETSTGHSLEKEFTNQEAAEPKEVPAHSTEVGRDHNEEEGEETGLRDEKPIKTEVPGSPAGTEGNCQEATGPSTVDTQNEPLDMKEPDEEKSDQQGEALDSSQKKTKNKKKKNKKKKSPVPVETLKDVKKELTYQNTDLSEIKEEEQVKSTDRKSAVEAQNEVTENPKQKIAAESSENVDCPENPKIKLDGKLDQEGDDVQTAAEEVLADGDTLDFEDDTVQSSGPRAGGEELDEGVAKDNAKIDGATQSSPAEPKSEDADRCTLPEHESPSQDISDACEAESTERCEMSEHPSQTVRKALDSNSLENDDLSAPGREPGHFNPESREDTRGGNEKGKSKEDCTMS
UniProt Q9H9A6: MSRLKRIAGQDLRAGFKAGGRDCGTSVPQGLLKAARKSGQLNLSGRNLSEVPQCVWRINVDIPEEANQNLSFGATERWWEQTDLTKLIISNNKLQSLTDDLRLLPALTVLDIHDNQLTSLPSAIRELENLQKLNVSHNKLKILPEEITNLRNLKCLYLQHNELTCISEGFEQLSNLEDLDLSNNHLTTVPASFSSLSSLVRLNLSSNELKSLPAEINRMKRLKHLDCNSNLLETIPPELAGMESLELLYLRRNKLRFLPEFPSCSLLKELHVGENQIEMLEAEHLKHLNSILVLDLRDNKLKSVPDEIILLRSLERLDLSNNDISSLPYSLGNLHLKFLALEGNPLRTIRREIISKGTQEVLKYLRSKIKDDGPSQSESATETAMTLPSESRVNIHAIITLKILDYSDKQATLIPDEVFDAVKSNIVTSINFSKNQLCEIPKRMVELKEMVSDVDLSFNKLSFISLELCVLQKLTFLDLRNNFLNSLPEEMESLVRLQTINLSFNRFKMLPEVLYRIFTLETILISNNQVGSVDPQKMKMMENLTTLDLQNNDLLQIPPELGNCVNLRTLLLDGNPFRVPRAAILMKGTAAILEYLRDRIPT
UniProt O75581: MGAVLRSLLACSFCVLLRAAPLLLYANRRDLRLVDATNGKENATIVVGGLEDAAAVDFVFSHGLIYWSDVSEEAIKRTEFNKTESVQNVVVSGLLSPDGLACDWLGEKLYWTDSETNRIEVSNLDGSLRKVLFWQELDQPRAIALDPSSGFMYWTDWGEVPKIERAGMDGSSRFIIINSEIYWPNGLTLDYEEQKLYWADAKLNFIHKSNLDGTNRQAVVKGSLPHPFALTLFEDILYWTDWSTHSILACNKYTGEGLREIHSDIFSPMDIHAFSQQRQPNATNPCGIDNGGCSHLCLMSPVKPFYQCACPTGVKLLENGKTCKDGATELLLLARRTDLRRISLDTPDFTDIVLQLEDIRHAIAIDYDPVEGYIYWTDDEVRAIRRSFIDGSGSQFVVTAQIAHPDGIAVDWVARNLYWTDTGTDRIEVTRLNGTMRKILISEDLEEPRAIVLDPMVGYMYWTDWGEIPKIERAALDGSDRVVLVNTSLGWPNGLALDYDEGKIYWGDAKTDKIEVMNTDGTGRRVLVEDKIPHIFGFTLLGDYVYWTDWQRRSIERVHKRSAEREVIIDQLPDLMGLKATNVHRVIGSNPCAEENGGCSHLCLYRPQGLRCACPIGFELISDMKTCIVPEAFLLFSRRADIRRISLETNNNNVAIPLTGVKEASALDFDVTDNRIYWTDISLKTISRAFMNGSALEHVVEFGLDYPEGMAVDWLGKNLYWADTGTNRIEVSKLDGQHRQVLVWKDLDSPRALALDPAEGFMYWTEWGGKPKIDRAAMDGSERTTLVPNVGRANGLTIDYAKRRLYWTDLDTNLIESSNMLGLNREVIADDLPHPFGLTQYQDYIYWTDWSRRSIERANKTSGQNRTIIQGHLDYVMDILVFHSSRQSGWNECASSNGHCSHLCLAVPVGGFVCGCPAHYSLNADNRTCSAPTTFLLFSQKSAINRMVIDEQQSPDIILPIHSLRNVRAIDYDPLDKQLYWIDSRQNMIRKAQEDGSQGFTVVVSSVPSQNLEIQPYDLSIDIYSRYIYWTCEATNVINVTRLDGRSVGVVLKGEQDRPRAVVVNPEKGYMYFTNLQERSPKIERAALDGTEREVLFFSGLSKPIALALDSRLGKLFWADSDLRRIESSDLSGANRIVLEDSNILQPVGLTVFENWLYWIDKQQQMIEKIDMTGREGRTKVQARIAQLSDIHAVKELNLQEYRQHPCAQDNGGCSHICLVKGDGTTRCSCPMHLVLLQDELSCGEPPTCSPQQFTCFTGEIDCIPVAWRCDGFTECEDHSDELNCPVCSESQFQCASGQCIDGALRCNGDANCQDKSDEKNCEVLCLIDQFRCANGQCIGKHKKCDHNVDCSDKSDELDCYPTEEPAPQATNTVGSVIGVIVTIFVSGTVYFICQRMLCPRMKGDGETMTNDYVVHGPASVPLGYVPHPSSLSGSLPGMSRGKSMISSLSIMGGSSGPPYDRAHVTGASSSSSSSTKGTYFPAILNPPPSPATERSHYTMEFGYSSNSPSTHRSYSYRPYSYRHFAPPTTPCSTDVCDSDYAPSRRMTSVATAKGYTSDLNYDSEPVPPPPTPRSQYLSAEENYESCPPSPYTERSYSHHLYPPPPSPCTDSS
UniProt Q9Y546: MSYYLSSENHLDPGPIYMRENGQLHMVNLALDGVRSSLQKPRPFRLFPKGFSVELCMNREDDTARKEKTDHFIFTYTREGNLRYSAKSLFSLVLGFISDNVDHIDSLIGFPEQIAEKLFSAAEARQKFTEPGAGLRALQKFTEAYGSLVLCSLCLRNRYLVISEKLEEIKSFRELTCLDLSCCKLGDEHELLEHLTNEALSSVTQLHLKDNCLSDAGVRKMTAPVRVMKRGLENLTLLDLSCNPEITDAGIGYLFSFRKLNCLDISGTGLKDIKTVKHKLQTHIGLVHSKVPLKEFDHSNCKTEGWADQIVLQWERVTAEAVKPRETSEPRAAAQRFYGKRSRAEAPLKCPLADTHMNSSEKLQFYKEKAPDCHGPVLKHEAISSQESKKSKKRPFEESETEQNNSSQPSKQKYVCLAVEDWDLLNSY
UniProt Q12907: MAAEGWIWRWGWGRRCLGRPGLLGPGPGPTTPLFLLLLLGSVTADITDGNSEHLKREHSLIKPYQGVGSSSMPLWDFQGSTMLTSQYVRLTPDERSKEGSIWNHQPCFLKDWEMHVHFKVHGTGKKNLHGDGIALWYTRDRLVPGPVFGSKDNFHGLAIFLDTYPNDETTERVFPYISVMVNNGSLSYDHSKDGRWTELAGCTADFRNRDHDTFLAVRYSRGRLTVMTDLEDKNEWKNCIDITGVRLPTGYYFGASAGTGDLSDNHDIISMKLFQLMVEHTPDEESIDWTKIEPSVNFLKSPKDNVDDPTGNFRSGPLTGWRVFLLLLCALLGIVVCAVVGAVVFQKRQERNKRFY
UniProt Q86X29: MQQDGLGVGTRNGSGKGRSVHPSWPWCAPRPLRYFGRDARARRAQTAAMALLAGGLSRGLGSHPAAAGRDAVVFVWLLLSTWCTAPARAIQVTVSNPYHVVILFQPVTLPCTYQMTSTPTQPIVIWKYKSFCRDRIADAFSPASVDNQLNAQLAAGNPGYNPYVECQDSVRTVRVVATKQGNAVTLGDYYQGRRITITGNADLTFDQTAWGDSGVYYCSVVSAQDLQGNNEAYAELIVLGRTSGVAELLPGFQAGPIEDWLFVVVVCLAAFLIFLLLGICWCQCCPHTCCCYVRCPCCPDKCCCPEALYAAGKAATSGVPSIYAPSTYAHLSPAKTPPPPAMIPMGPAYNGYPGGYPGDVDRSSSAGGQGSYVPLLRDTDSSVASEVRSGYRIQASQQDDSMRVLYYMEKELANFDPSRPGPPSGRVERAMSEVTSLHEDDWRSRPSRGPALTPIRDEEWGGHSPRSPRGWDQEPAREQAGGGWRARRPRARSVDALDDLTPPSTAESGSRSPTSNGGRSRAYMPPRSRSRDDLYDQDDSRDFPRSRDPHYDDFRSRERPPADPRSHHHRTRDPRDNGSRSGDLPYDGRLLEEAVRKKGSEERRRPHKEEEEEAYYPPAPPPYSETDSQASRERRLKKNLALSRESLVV

[1] = compound: C/C(=N\NC(=O)C1=CC(=CC=C1)S(=O)(=O)N2CCOCC2)/C3=C(C=CC(=C3)Cl)O
Procedure, shortened: as §1

[2] = compound: C1=CC(=CC=C1C2=NC3=C(N2)C=C(C=C3)C(=O)N)OC4=CC=C(C=C4)Cl
Procedure, shortened: as §1

[3] = compound: C1=CC2=C(C=CC(=C2)/C=C\3/C(=O)NC(=NCC4=CC=CS4)S3)N=C1
Procedure, shortened: as §1

[4] = compound: C1=CC2=NC=CN=C2C=C1/C=C/3\C(=O)NC(=O)S3
Procedure, shortened: as §1

[5] = compound: C1=CC=C(C=C1)C2=NC(=C(N2)C3=CC=NC=C3)C4=CC(=C(C=C4)Cl)O
Procedure, shortened: as §1

[6] = compound: C1=CC=C2C(=C1)C3=NNC4=CC=CC(=C43)C2=O
Procedure, shortened: as §1

[7] = compound: C1CCN(C1)C(=O)NC2=CC=CC(=C2)NC3=NC=C(C(=N3)NCCC4=CN=CN4)Br
Procedure, shortened: as §1

[8] = compound: C1CN(CCC1(CC2=CC=C(C=C2)Cl)N)C3=NC=NC4=C3C=CN4
Procedure, shortened: as §1

IRAK-1-4 Inhibitor I = compound: C1COCCN1CCN2C3=CC=CC=C3N=C2NC(=O)C4=CC(=CC=C4)[N+](=O)[O-] [IRAK-1-4 Inhibitor I]
Procedure, shortened: as §1

ibrutinib = compound: C=CC(=O)N1CCC[C@@H](n2nc(-c3ccc(Oc4ccccc4)cc3)c3c(N)ncnc32)C1 [ibrutinib]
Procedure, shortened: as §1

[9] = compound: CC(=O)c1cnc2ccc(-c3cc(Cl)c(O)c(Cl)c3)nc2c1N[C@H]1CC[C@H](CN(C)C)CC1
Procedure, shortened: as §1

ralimetinib = compound: CC(C)(C)Cn1c(N)nc2ccc(-c3[nH]c(C(C)(C)C)nc3-c3ccc(F)cc3)nc21 [ralimetinib]
Procedure, shortened: as §1

[10] = compound: CC(C)(O)CC(=O)NCCn1ccc2ncnc(Nc3ccc(Oc4cccc(C(F)(F)F)c4)c(Cl)c3)c21
Procedure, shortened: as §1

[11] = compound: CC(C)C1=C2N=C(C=C(N2N=C1)NCC3=CC=CC=C3)NCCCCCCN
Procedure, shortened: as §1

[12] = compound: CC1=C(C(CC(=O)N1)C2=CC=C(C=C2)C(F)(F)F)C(=O)NC3=C(C=C4C(=C3)C=NN4)F
Procedure, shortened: as §1

[13] = compound: CC1=C(C2=C(C=C1)C(=O)C3=CC=CC=C3N2CCCN)C
Procedure, shortened: as §1

[14] = compound: CC1=C(C=C(C=C1)NC(=O)C2=CC(=CC=C2)C(C)(C)C#N)NC3=CC4=C(C=C3)N=CN(C4=O)C
Procedure, shortened: as §1

[15] = compound: CC1=C(C=C(C=C1)NC(=O)C2=CC(=CC=C2)N(C)C)NC(=O)C3=CC=C(C=C3)O
Procedure, shortened: as §1

[16] = compound: CC1=CC=C(C=C1)SC2=C3C=C(SC3=CN=C2)C(=O)N
Procedure, shortened: as §1

Measured: log2 fold change

LGALS1 (UniProt P09382)
inactive: erlotinib 0.021 | [1] -0.013 | [2] -0.008 | [3] 0.012 | [4] -0.02 | [5] 0 | [6] -0.011 | [7] 0.019 | [8] 0.05 | IRAK-1-4 Inhibitor I -0.005 | ibrutinib 0.034 | [9] -0.025 | ralimetinib 0.002 | [10] -0.05 | [11] 0.019 | [12] -0.038 | [13] -0.002 | [14] 0.037 | [15] -0.004 | [16] 0.008

LGALS3BP (UniProt Q08380)
inactive: erlotinib -0.154 | [1] 0.293 | [2] 0.064 | [3] 0.331 | [6] -0.203 | [7] 0.018 | [8] -0.171 | [9] 0.061 | [11] 0 | [12] 1.31 | [13] 0.453 | [14] -0.009 | [16] 0

LRRC8C (UniProt E9PHY6)
inactive: erlotinib -0.099 | [1] -0.025 | [2] -0.133 | [3] 0.032 | [6] -0.376 | [11] 0.011 | [12] -0.063

LRRFIP1 (UniProt Q32MZ4)
inactive: erlotinib 0.002 | [1] -0.017 | [2] 0.03 | [3] 0.016 | [4] 0.004 | [5] 0.011 | [6] -0.015 | [7] -0.034 | [8] -0.004 | IRAK-1-4 Inhibitor I 0.003 | ibrutinib -0.017 | [9] -0.011 | ralimetinib -0.008 | [10] -0.038 | [11] 0.015 | [12] -0.023 | [13] -0.028 | [14] 0.014 | [15] 0.01 | [16] -0.016

Reprinted at random: two records from the list, in no set order.
LRRFIP1 (UniProt Q32MZ4)
inactive: erlotinib 0.002 | [1] -0.017 | [2] 0.03 | [3] 0.016 | [4] 0.004 | [5] 0.011 | [6] -0.015 | [7] -0.034 | [8] -0.004 | IRAK-1-4 Inhibitor I 0.003 | ibrutinib -0.017 | [9] -0.011 | ralimetinib -0.008 | [10] -0.038 | [11] 0.015 | [12] -0.023 | [13] -0.028 | [14] 0.014 | [15] 0.01 | [16] -0.016

LGALS3BP (UniProt Q08380)
inactive: erlotinib -0.154 | [1] 0.293 | [2] 0.064 | [3] 0.331 | [6] -0.203 | [7] 0.018 | [8] -0.171 | [9] 0.061 | [11] 0 | [12] 1.31 | [13] 0.453 | [14] -0.009 | [16] 0

Following part:

LRRC40 (UniProt Q9H9A6)
inactive: erlotinib -0.014 | [1] 0.009 | [2] 0.004 | [3] -0.002 | [4] -0.028 | [5] -0.015 | [6] -0.014 | [7] -0.036 | [8] -0.011 | IRAK-1-4 Inhibitor I -0.017 | ibrutinib 0.017 | [9] 0.011 | ralimetinib 0.019 | [10] 0.025 | [11] -0.011 | [12] 0.015 | [13] 0.002 | [14] -0.073 | [15] 0.01 | [16] -0.007

LRP6 (UniProt O75581)
inactive: erlotinib -0.057 | [2] 0.048 | [4] -0.094 | [5] 0.039 | [7] 0.023 | [8] 0.073 | IRAK-1-4 Inhibitor I 0.007 | ibrutinib -0.077 | ralimetinib -0.112 | [10] -0.055 | [11] -0.01 | [13] 0.005 | [14] -0.051 | [15] 0.01

LRRC42 (UniProt Q9Y546)
inactive: erlotinib -0.062 | [1] 0.04 | [2] -0.155 | [3] -0.046 | [5] 0.067 | [6] -0.03 | [7] 0.094 | [8] -0.013 | IRAK-1-4 Inhibitor I -0.046 | ralimetinib -0.165 | [10] -0.042 | [11] -0.245 | [12] -0.085 | [13] 0.037 | [14] 0.029 | [15] 0.019

LMAN2 (UniProt Q12907)
inactive: erlotinib -0.003 | [1] 0.052 | [2] -0.017 | [3] 0.006 | [4] 0 | [5] 0.002 | [6] -0.014 | [7] -0.009 | [8] 0.022 | IRAK-1-4 Inhibitor I -0.002 | ibrutinib -0.05 | [9] 0.008 | ralimetinib -0.025 | [10] 0.012 | [11] 0.003 | [12] 0.016 | [13] -0.003 | [14] 0.034 | [15] -0.032 | [16] 0.007

LSR (UniProt Q86X29)
inactive: erlotinib -0.045 | [1] -0.008 | [2] -0.04 | [3] 0.032 | [4] -0.048 | [5] -0.057 | [6] -0.009 | [7] 0.038 | [8] -0.001 | IRAK-1-4 Inhibitor I -0.034 | ibrutinib 0.038 | [9] -0.012 | ralimetinib 0.026 | [10] 0.062 | [11] 0.003 | [12] 0.036 | [13] 0.039 | [14] 0.029 | [15] -0.031 | [16] 0.021

From the supplement of paper PMC10849652
